Data on 1 substance can be found in paper doi:10.1101/2023.05.04.539294.

The chains behind the UniProt entries cited, without tags or fusion partners. Residues count along the entry.
UniProt O75251, residues 39-213: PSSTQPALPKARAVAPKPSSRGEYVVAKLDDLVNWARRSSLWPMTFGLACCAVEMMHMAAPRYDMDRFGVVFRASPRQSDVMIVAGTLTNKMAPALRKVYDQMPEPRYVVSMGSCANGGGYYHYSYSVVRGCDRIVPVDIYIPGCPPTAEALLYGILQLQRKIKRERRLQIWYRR

No constants are given. Whether binding was seen depends on the method and setting. Binding seen in cells or lysates may run through a third protein. Some binding calls cover weakened binding; strength is not graded here. For some assays here: Tags and fused reporters may be left off the sequences shown.

Assay [1] addresses T1, Acyl-CoA thioesterase 9 (ACOT9) (human (endogenous in HEK293E)) (UniProt Q9Y305).
T1 sequence: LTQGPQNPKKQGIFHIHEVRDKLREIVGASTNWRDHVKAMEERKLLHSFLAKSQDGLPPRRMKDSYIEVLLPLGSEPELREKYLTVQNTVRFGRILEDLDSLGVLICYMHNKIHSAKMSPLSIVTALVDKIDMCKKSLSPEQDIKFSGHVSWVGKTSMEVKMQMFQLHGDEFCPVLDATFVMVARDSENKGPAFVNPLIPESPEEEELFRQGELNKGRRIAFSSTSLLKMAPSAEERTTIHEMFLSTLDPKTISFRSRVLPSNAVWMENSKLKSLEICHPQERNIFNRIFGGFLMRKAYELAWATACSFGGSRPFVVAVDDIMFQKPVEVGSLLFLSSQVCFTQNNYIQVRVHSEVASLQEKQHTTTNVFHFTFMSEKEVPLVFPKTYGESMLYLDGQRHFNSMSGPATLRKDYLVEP
Description: proximity ligation.

Assay [2] deals with T2, Recombinant ACOT9 fused to maltose binding protein (MBP-ACOT9) (UniProt Q9R0X4).
T2 sequence: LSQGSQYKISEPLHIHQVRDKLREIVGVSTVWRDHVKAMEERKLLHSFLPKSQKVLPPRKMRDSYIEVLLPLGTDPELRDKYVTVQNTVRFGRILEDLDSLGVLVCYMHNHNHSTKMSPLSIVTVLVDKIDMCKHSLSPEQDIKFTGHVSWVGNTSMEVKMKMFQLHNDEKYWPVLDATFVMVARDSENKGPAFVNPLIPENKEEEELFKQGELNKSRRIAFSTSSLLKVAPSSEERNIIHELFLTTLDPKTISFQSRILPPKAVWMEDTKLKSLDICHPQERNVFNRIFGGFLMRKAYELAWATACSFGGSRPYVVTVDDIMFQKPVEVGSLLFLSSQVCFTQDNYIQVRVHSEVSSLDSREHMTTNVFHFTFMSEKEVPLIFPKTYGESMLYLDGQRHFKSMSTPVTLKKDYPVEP
Description: pull-down.

Regarding “NADH:ubiquinone oxidoreductase core subunit S7 (NDUFS7) (from UniProt O75251 39-213)”, the binding result in assay [1] and in assay [2] was “binds” throughout.
